Reference: patent publication US20240400579A1, “SPIROCYCLIC MODULATORS OF CHOLESTEROL BIOSYNTHESIS AND THEIR USE FOR PROMOTING REMYELINATION” (GENENTECH, INC., priority 2021, published 2024)
Structures were worked out from names or drawings and are uncertain.

How the values were obtained:
EpiSC-derived OPCs = assay: In vitro phenotypic screening of OPCs, MBP high-content imaging; settings: read-out: mOPC EC50; percentage of MBP+ oligodendrocytes; 3 days; 0.5 nM to 1000 nM; listed as 124B*
[1] = system: zymostenol accumulation in EpiSC-derived OPCs (EBP); assay: GC/MS-based sterol profiling, zymostenol accumulation; settings: read-out: mZymo GCMS EC50, 24 hours, 8 doses from 0.15 nM to 333 nM, listed as 124B*

With `CC(Cc1ccc(C2CCCCO2)c(Cl)c1)CN1CCC2(C1)CS(=O)(=O)C2` (single isomer, unassigned) the EC50 (EpiSC-derived OPCs) was 54 nM and the EC50 [1] was 14 nM.
